PubChem BioAssay AID1259425 | University of Nebraska Medical Center – 2018

Assay: 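Seek colon cancer weak points whose silencing resembles KSR1 loss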 (primary screen)
Cells: HCT116 human colon cancer cells
Reagents: siRNA pool against human genes, 50 nM siRNA
Measured: 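mRNA of six signature genes measured together by branched-DNA assay after 50 nM siRNA pool, blank removed, divided by geometric mean of two housekeeping genes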
Direction: BNIP3L mRNA: higher = more BNIP3L transcript after knockdown; NDRG1 mRNA: higher = more NDRG1 transcript after knockdown; BNIP3 mRNA: higher = more BNIP3 transcript after knockdown; ALDOC mRNA: higher = more ALDOC transcript after knockdown; ACSL5 mRNA: higher = more ACSL5 transcript after knockdown
Shown is a random part of about 14,000 reagents tested. Not given: the time to read-out.

gene knocked down | BNIP3L mRNA, set 1 | NDRG1 mRNA, set 1 | BNIP3 mRNA, set 1 | ALDOC mRNA, set 1 | ACSL5 mRNA, set 1
RBP4 | 0.137 | 0.147 | 0.243 | 0.00155 | 0.0717
HSPE1 | 0.151 | 0.159 | 0.374 | 0.0176 | 0.135
MYCBP | 0.0914 | 0.0968 | 0.308 | 0.0236 | 0.0844
MAP1B | 0.12 | 0.111 | 0.317 | 0.0459 | 0.108
SYF2 | 0.151 | 0.23 | 0.846 | 0.0402 | 0.0906
KCNN3 | 0.131 | 0.221 | 0.272 | 0.0284 | 0.13
GPR82 | 0.187 | 0.198 | 0.223 | 0.0339 | 0.17
ELMOD3 | 0.116 | 0.56 | 0.361 | 0.0495 | 0.241
PSG11 | 0.154 | 0.201 | 0.24 | 0.0363 | 0.23
PCDHA1 | 0.141 | 0.189 | 0.582 | 0.0323 | 0.362
GPD1 | 0.0277 | 0.0702 | 0.268 | 0.0614 | 0.123
KCNN1 | 0.0744 | 0.187 | 0.213 | 0.00294 | 0.0952
PSD | 0.0749 | 0.191 | 0.25 | 0.0161 | 0.0522
EEF1A1 | 0.0586 | 0.112 | 0.165 | 0.0142 | 0.108
POU5F1 | 0.11 | 0.173 | 0.252 | 0.0166 | 0.234
SULT1A1 | 0.14 | 0.456 | 0.458 | 0.0529 | 0.309
ANLN | 0.161 | 0.4 | 0.307 | 0.0373 | 0.213
BIK | 0.0784 | 0.136 | 0.306 | 0.0377 | 0.103
EPB41L5 | 0.1 | 0.105 | 0.378 | 0.0341 | 0.0857
PDK2 | 0.0842 | 0.228 | 0.346 | 0.00913 | 0.176
XK | 0.144 | 0.172 | 0.411 | 0.0368 | 0.212
CCT5 | 0.116 | 0.269 | 0.256 | 0.00261 | 0.344
TTC1 | 0.215 | 1.3 | 0.351 | 0.0174 | 0.44
HRH2 | 0.151 | 0.503 | 0.351 | 0.0686 | 0.205
SF3B5 | 0.0596 | 0.976 | 0.106 | 0.0413 | 0.0612
LIPC | 0.0936 | 0.152 | 0.184 | 0.0175 | 0.203
P3H1 | 0.198 | 0.538 | 0.356 | 0.0272 | 0.379
TRIM45 | 0.156 | 0.344 | 0.184 | 0.0345 | 0.149
MAP3K7 | 0.131 | 0.125 | 0.22 | 0.00536 | 0.137
PIN1 | 0.109 | 0.243 | 0.311 | 0.0358 | 0.174
XYLB | 0.0798 | 0.156 | 0.167 | 0.0126 | 0.264
CUZD1 | 0.183 | 0.249 | 0.335 | 0.0564 | 0.338
EYA2 | 0.148 | 0.185 | 0.38 | 0.019 | 0.21
HSH2D | 0.0985 | 0.103 | 0.177 | 0.034 | 0.113
PLA2G4A | 0.0752 | 0.0554 | 0.257 | 0.0189 | 0.0722
APEX2 | 0.239 | 0.331 | 0.512 | 0.072 | 0.481
SS18L1 | 0.247 | 0.108 | 0.884 | 0.0466 | 0.168
PSMD14 | 0.0494 | 0.129 | 0.111 | 0.0379 | 0.1
PRSS27 | 0.21 | 0.23 | 0.319 | 0.0491 | 0.226
RPL35 | 0.477 | 0.743 | 0.748 | 0.0308 | 0.349
RS1 | 0.111 | 0.327 | 0.34 | 0.00769 | 0.121
RPS21 | 0.0737 | 0.098 | 0.526 | 0.0171 | 0.127
ZSCAN16 | 0.109 | 0.291 | 0.36 | 0.0693 | 0.142
VSIG10 | 0.093 | 0.121 | 0.172 | 0.0211 | 0.0883
MIER3 | 0.113 | 0.141 | 0.378 | 0.0175 | 0.152
REXO1 | 0.0982 | 0.182 | 0.243 | 0.0308 | 0.235
NOL12 | 0.216 | 0.175 | 0.374 | 0.0461 | 0.174
LNPEP | 0.101 | 0.31 | 0.248 | 0.0174 | 0.172
GOLGA4 | 0.0639 | 0.14 | 0.232 | 0.0122 | 0.129
PPARG | 0.0605 | 0.219 | 0.227 | 0.0445 | 0.156

Ordered by “BNIP3L mRNA, set 1” (lowest first): some entries from above.
gene knocked down | BNIP3L mRNA, set 1 | NDRG1 mRNA, set 1 | BNIP3 mRNA, set 1 | ALDOC mRNA, set 1 | ACSL5 mRNA, set 1
GOLGA4 | 0.0639 | 0.14 | 0.232 | 0.0122 | 0.129
REXO1 | 0.0982 | 0.182 | 0.243 | 0.0308 | 0.235
LNPEP | 0.101 | 0.31 | 0.248 | 0.0174 | 0.172
NOL12 | 0.216 | 0.175 | 0.374 | 0.0461 | 0.174
